In the supplement of paper PMC10382679:
Single values of this set are uncertain.

B1: Rpb7; numbered along this chain (parent)
chain: MFFIKDLSLNITLHPSFFGPRMKQYLKTKLLEEVEGSCTGKFGYILCVLDYDNIDIQRGRILPTDGSAEFNVKYRAVVFKPFKGEVVDGTVVSCSQHGFEVQVGPMKVFVTKHLMPQDLTFNAGSNPPSYQSSEDVITIKSRIRVKIEGCISQVSSIHAIGSIKEDYLGAI

What was measured:
[1] = variants of: B1; assay: log2 fold change of mutant abundance, UV-irradiated vs unirradiated; higher = more UV resistant (enriched after UV); conditions: with Saccharomyces cerevisiae rad7Δ rad26Δ; UV dose (J/m2): 10; genetic background: rad7Δ rad26Δ rpb7Δ + plasmid RPB7 library; outgrowth: 10 cell divisions
[2] = variants of: B1; assay: NOISeq theta enrichment statistic, UV-irradiated vs unirradiated (dimensionless); higher = more UV resistant (enriched after UV); conditions: with Saccharomyces cerevisiae rad7Δ rad26Δ; UV dose (J/m2): 10; genetic background: rad7Δ rad26Δ rpb7Δ + plasmid RPB7 library; outgrowth: 10 cell divisions

| Variant | log2 fold change of mutant abundance [1] | NOISeq theta enrichment statistic [2] |
| --- | --- | --- |
| MFFIKDLSLNITLHPSFFGPRMKQYLKTKLLEEVEGSCTGKFGYILCVLDYDNIDIQRGRILPTDGSAEFNVKYRAVVFKPFKGEVVDGTVVSCSQHGFEVQVGPMKVFVTKHLMPQDLTFNAGSNPPSYQSSEDVITIYSRIRVKIEGCISQVSSIHAIGSIKEDYLGAI | -0.283 | -0.164 |
| MFFIKDLSLNITLHPSFFGPRMKQYLKTKLLEEVEGSCTGKFGYILCVLDYDNIDIQRGRILPTDGSAEFNVKYRAVVFKPFKGEVVDGTVVSCSQHGFEVQVGPMKVFVTKHLMPQDLTFNAGSNPPSYQSSEDVITIKCRIRVKIEGCISQVSSIHAIGSIKEDYLGAI | -0.00608 | -0.0237 |
| MFFIKDLSLNITLHPSFFGPRMKQYLKTKLLEEVEGSCTGKFGYILCVLDYDNIDIQRGRILPTDGSAEFNVKYRAVVFKPFKGEVVDGTVVSCSQHGFEVQVGPMKVFVTKHLMPQDLTFNAGSNPPSYQSSEDVITIKDRIRVKIEGCISQVSSIHAIGSIKEDYLGAI | 0.33 | 0.299 |
| MFFIKDLSLNITLHPSFFGPRMKQYLKTKLLEEVEGSCTGKFGYILCVLDYDNIDIQRGRILPTDGSAEFNVKYRAVVFKPFKGEVVDGTVVSCSQHGFEVQVGPMKVFVTKHLMPQDLTFNAGSNPPSYQSSEDVITIKGRIRVKIEGCISQVSSIHAIGSIKEDYLGAI | 0.032 | 0.0743 |
| MFFIKDLSLNITLHPSFFGPRMKQYLKTKLLEEVEGSCTGKFGYILCVLDYDNIDIQRGRILPTDGSAEFNVKYRAVVFKPFKGEVVDGTVVSCSQHGFEVQVGPMKVFVTKHLMPQDLTFNAGSNPPSYQSSEDVITIKHRIRVKIEGCISQVSSIHAIGSIKEDYLGAI | 1.93 | 0.727 |
| MFFIKDLSLNITLHPSFFGPRMKQYLKTKLLEEVEGSCTGKFGYILCVLDYDNIDIQRGRILPTDGSAEFNVKYRAVVFKPFKGEVVDGTVVSCSQHGFEVQVGPMKVFVTKHLMPQDLTFNAGSNPPSYQSSEDVITIKIRIRVKIEGCISQVSSIHAIGSIKEDYLGAI | 0.163 | 0.193 |
| MFFIKDLSLNITLHPSFFGPRMKQYLKTKLLEEVEGSCTGKFGYILCVLDYDNIDIQRGRILPTDGSAEFNVKYRAVVFKPFKGEVVDGTVVSCSQHGFEVQVGPMKVFVTKHLMPQDLTFNAGSNPPSYQSSEDVITIKKRIRVKIEGCISQVSSIHAIGSIKEDYLGAI | 0.00635 | 0.00545 |
| MFFIKDLSLNITLHPSFFGPRMKQYLKTKLLEEVEGSCTGKFGYILCVLDYDNIDIQRGRILPTDGSAEFNVKYRAVVFKPFKGEVVDGTVVSCSQHGFEVQVGPMKVFVTKHLMPQDLTFNAGSNPPSYQSSEDVITIKNRIRVKIEGCISQVSSIHAIGSIKEDYLGAI | 0.0119 | 0.0274 |
| MFFIKDLSLNITLHPSFFGPRMKQYLKTKLLEEVEGSCTGKFGYILCVLDYDNIDIQRGRILPTDGSAEFNVKYRAVVFKPFKGEVVDGTVVSCSQHGFEVQVGPMKVFVTKHLMPQDLTFNAGSNPPSYQSSEDVITIKRRIRVKIEGCISQVSSIHAIGSIKEDYLGAI | -0.0826 | -0.25 |
| MFFIKDLSLNITLHPSFFGPRMKQYLKTKLLEEVEGSCTGKFGYILCVLDYDNIDIQRGRILPTDGSAEFNVKYRAVVFKPFKGEVVDGTVVSCSQHGFEVQVGPMKVFVTKHLMPQDLTFNAGSNPPSYQSSEDVITIKTRIRVKIEGCISQVSSIHAIGSIKEDYLGAI | 0.067 | 0.104 |
| MFFIKDLSLNITLHPSFFGPRMKQYLKTKLLEEVEGSCTGKFGYILCVLDYDNIDIQRGRILPTDGSAEFNVKYRAVVFKPFKGEVVDGTVVSCSQHGFEVQVGPMKVFVTKHLMPQDLTFNAGSNPPSYQSSEDVITIKVRIRVKIEGCISQVSSIHAIGSIKEDYLGAI | -0.793 | -0.416 |
| MFFIKDLSLNITLHPSFFGPRMKQYLKTKLLEEVEGSCTGKFGYILCVLDYDNIDIQRGRILPTDGSAEFNVKYRAVVFKPFKGEVVDGTVVSCSQHGFEVQVGPMKVFVTKHLMPQDLTFNAGSNPPSYQSSEDVITIKSCIRVKIEGCISQVSSIHAIGSIKEDYLGAI | 0.524 | 0.235 |
| MFFIKDLSLNITLHPSFFGPRMKQYLKTKLLEEVEGSCTGKFGYILCVLDYDNIDIQRGRILPTDGSAEFNVKYRAVVFKPFKGEVVDGTVVSCSQHGFEVQVGPMKVFVTKHLMPQDLTFNAGSNPPSYQSSEDVITIKSEIRVKIEGCISQVSSIHAIGSIKEDYLGAI | -0.728 | -0.411 |
| MFFIKDLSLNITLHPSFFGPRMKQYLKTKLLEEVEGSCTGKFGYILCVLDYDNIDIQRGRILPTDGSAEFNVKYRAVVFKPFKGEVVDGTVVSCSQHGFEVQVGPMKVFVTKHLMPQDLTFNAGSNPPSYQSSEDVITIKSGIRVKIEGCISQVSSIHAIGSIKEDYLGAI | -0.0471 | -0.102 |
| MFFIKDLSLNITLHPSFFGPRMKQYLKTKLLEEVEGSCTGKFGYILCVLDYDNIDIQRGRILPTDGSAEFNVKYRAVVFKPFKGEVVDGTVVSCSQHGFEVQVGPMKVFVTKHLMPQDLTFNAGSNPPSYQSSEDVITIKSIIRVKIEGCISQVSSIHAIGSIKEDYLGAI | -0.00961 | -0.0192 |
| MFFIKDLSLNITLHPSFFGPRMKQYLKTKLLEEVEGSCTGKFGYILCVLDYDNIDIQRGRILPTDGSAEFNVKYRAVVFKPFKGEVVDGTVVSCSQHGFEVQVGPMKVFVTKHLMPQDLTFNAGSNPPSYQSSEDVITIKSKIRVKIEGCISQVSSIHAIGSIKEDYLGAI | 0.0298 | 0.0639 |
| MFFIKDLSLNITLHPSFFGPRMKQYLKTKLLEEVEGSCTGKFGYILCVLDYDNIDIQRGRILPTDGSAEFNVKYRAVVFKPFKGEVVDGTVVSCSQHGFEVQVGPMKVFVTKHLMPQDLTFNAGSNPPSYQSSEDVITIKSMIRVKIEGCISQVSSIHAIGSIKEDYLGAI | -0.624 | -0.426 |

Complete entries, quoted from the list. Order of values: log2 fold change of mutant abundance [1] | NOISeq theta enrichment statistic [2]
MFFIKDLSLNITLHPSFFGPRMKQYLKTKLLEEVEGSCTGKFGYILCVLDYDNIDIQRGRILPTDGSAEFNVKYRAVVFKPFKGEVVDGTVVSCSQHGFEVQVGPMKVFVTKHLMPQDLTFNAGSNPPSYQSSEDVITIYSRIRVKIEGCISQVSSIHAIGSIKEDYLGAI is entered as -0.283 | -0.164
MFFIKDLSLNITLHPSFFGPRMKQYLKTKLLEEVEGSCTGKFGYILCVLDYDNIDIQRGRILPTDGSAEFNVKYRAVVFKPFKGEVVDGTVVSCSQHGFEVQVGPMKVFVTKHLMPQDLTFNAGSNPPSYQSSEDVITIKSMIRVKIEGCISQVSSIHAIGSIKEDYLGAI is entered as -0.624 | -0.426
